For some assays here: The name of at least one read-out is uncertain. For some assays here: At least one compound was matched to its structure with a doubt left.
How the values were obtained:
[1] = tested on: NASH; conditions: human, in vivo; cited from earlier work
[2] = Parallel Artificial Membrane Permeability-Blood Brain Barrier Assay (PMBBB-096); type: in vitro ADME
Experimental: Indeglitazar was evaluated using the Parallel Artificial Membrane Permeability-Blood Brain Barrier Assay (PMBBB-096; BioAssay Systems, Hayward, CA).

SMILES: CCc1ccc(CCOc2ccc(CC3SC(=O)NC3=O)cc2)nc1 (centres unmarked) [pioglitazone]
- improvement of NASH, share of people treated [1]: about half

SMILES: COc1ccc(S(=O)(=O)n2cc(CCC(=O)O)c3cc(OC)ccc32)cc1 [Indeglitazar, 3-[5-methoxy-1-(4-methoxybenzenesulfonyl)-1H-indol-3-yl]-propanoic acid]
- blood-brain-barrier permeability [2]: adequate permeability
